# Results: patent US20230265151A1, “GIP/GLP1 CO-AGONIST COMPOUNDS” (priority 2020, published 2023)
# Sequences of proteins named here, by UniProt entry; tags and fusion partners are left off. Residues count along the entry.
# UniProt P43220, 24-463: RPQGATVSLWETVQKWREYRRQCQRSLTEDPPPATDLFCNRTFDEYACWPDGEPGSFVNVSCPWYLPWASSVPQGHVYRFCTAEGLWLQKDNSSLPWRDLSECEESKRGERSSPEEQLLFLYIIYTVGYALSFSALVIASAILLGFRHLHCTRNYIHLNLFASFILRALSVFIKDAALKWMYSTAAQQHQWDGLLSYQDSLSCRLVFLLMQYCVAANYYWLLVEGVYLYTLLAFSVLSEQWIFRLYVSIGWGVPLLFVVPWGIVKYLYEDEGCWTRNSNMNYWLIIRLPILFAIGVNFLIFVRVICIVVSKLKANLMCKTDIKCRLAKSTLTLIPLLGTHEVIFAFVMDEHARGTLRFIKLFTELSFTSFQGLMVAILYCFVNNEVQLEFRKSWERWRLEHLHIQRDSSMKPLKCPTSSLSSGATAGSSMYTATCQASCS
# At least one compound was matched to its structure with a doubt left.
# Target: T1, human GLP-1 receptor (hGLP-1R) (Homo sapiens, UniProt P43220)
# T1 construct: expressed in transfected cells; crude membranes
# Test: [125I]-GLP-1 binding, SPA with membranes of HEK293 cells expressing hGLP-1R
# Settings: human GLP-1R; geometric mean (SEM, n); read-out: Binding Affinity Ki, nM (SEM, n) hGLP-1R
# Method: Two methods are used for the preparation of crude cell membranes.
# Method 1: Frozen cell pellets are lysed on ice in hypotonic buffer containing 50 mM Tris HCl, pH 7.5, and Roche Complete™ Protease Inhibitors with EDTA. […] The homogenate is centrifuged at 4° C. at 1100 × g for 10 minutes. The supernatant is collected and stored on ice while the pellets are resuspended in homogenization buffer and rehomogenized as described above. The homogenate is centrifuged at 1100 × g for 10 minutes. The second supernatant is combined with the first supernatant and centrifuged at 35000 × g for 1 hour at 4° C. […]
# Raw CPM data for concentration curves of peptides, Gcg, GLP-1, or GIP are converted to percent inhibition by subtracting nonspecific binding (binding in the presence of excess unlabeled Gcg, GLP-1, or GIP, respectively) from the individual CPM values and dividing by the total binding signal, also corrected by subtracting nonspecific binding. Data are analyzed using four-parameter (curve maximum, curve minimum, IC50, Hill slope) nonlinear regression routines (Genedata Screener, version 12.0.4, Genedata AG, Basal, Switzerland). […] Values for Ki are reported as the geometric mean, with error expressed as the standard error of the mean (SEM) and n is equal to the number of independent replicates (determined in assays performed on different days). Geometric Means are calculated as follows: […]
smiles,measurement,value
CC[C@H](C)[C@H](NC(=O)[C@H](CC(C)C)NC(=O)[C@](C)(Cc1ccc(O)cc1)NC(=O)[C@@H](CCC(=O)O)NC(=O)[C@@H](NC(=O)[C@H](Cc1ccccc1)NC(=O)[C@H](CCC(=O)O)NC(=O)C(C)(C)NC(=O)[C@H](CCC(N)=O)NC(=O)[C@H](C)NC(=O)[C@H](CCCCNC(=O)[C@@H](N)CCCCNC(=O)CC[C@H](NC(=O)CC[C@H](NC(=O)CCCCCCCCCCCCC(=O)O)C(=O)O)C(=O)O)NC(=O)[C@H](CCCN)NC(=O)[C@H](CC(=O)O)NC(=O)[C@H](CC(C)C)NC(=O)[C@](C)(CC(C)C)NC(=O)[C@@H](NC(=O)[C@H](CO)NC(=O)[C@H](Cc1ccncc1)NC(=O)[C@H](CC(=O)O)NC(=O)[C@H](CO)NC(=O)[C@@H](NC(=O)[C@](C)(Cc1ccccc1F)NC(=O)[C@@H](NC(=O)CNC(=O)[C@H](CCC(=O)O)NC(=O)C(C)(C)NC(=O)[C@@H](N)Cc1ccc(O)cc1)[C@@H](C)O)[C@@H](C)O)[C@@H](C)CC)[C@@H](C)CC)C(=O)N[C@@H](CCC(=O)O)C(=O)NCC(=O)NCC(=O)N[C@@H](CCCCNC(=O)[C@@H](N)CCCCNC(=O)CC[C@H](NC(=O)CC[C@H](NC(=O)CCCCCCCCCCCCC(=O)O)C(=O)O)C(=O)O)C(=O)N[C@@H](CO)C(=O)N[C@@H](CO)C(=O)NCC(=O)N[C@@H](C)C(=O)N1CCC[C@H]1C(=O)N1CCC[C@H]1C(=O)N1CCC[C@H]1C(=O)N[C@@H](CO)C(N)=O [Example 39],Ki,1.69 nM
